Drawing on article PMC5932058, this text covers binding for two molecules.

The target of the assay is T1, HA-Fzo1 (S. cerevisiae) (UniProt P38297).
T1 sequence: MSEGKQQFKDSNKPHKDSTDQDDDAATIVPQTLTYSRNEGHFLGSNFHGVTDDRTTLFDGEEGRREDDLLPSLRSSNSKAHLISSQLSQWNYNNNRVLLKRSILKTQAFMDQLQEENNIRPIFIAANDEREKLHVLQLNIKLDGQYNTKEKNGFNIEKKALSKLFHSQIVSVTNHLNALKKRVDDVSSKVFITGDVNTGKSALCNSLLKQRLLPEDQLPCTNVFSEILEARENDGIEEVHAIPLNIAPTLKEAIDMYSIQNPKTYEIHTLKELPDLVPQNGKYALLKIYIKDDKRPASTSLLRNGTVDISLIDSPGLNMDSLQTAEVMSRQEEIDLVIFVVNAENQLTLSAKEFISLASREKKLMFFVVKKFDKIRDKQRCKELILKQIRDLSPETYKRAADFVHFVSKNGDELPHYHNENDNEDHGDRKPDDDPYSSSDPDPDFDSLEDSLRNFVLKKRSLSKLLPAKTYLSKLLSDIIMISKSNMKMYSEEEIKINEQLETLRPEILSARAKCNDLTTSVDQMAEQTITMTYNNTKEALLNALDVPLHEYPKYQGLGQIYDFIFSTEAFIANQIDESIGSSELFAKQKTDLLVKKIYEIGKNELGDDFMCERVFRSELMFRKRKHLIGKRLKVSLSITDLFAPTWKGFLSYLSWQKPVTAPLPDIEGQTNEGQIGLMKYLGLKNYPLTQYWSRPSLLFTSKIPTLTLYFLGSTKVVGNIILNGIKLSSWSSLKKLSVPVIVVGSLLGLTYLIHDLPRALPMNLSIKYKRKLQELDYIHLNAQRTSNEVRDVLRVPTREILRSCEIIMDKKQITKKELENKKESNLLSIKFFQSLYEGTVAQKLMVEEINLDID
In words: co-IP; HA-Fzo1 immunoprecipitated with HA-coupled beads (2 h, 4 °C) from the crude membrane fraction of yeast cells solubilized with 0.2% NG310 in TBS; beads washed 3x with 0.2% NG310 in TBS; eluate blotted with HA- and GFP-specific antibodies; empty vector as control.

Results are given in words; binding and its absence hold for the method and conditions named. Binding seen in cells or lysates may run through a third protein. Some results given as binding are weak or reduced against the parent protein; the word gives no strength. Tags and fused reporters may be left off the sequences shown.

B1: GFP-Pex14 (protein, UniProt P53112 1-341)
chain: MSDVVSKDRKALFDSAVSFLKDESIKDAPLLKKIEFLKSKGLTEKEIEIAMKEPKKDGIVGDEVSKKIGSTENRASQDMYLYEAMPPTLPHRDWKDYFVMATATAGLLYGAYEVTRRYVIPNILPEAKSKLEGDKKEIDDQFSKIDTVLNAIEAEQAEFRKKESETLKELSDTIAELKQALVQTTRSREKIEDEFRIVKLEVVNMQNTIDKFVSDNDGMQELNNIQKEMESLKSLMNNRMESGNAQDNRLFSISPNGIPGIDTIPSASEILAKMGMQEESDKEKENGSDANKDDNAVPAWKKAREQTIDSNASIPEWQKNTAANEISVPDWQNGQVEDSIP
For B1, the binding result is recorded as “binds”.

B2: GFP-Pex19 (protein, UniProt Q07418 1-342)
chain: MNENEYDNFDDLDDLLDEDPTKLDEAEPDDVQAKGSVYNDSENKEKNAESKDSDGVQVANESEEDPELKEMMVDLQNEFANLMKNNGNENNVKTEDFNKLISALEEAAKVPHQQMEQGCSSLKSNSTDKGTVNGSNPGFKNIVSNTLDRLKENGNKVDTSLAEETKESQRSGQNNNIDDILSQLLDQMVASGGKESAENQFDLKDGEMDDAITKILDQMTSKEVLYEPMKEMRSEFGVWFQENGENEEHKEKIGTYKRQFNIVDEIVNIYELKDYDELKHKDRVTELLDELEQLGDSPIRSANSPLKHGNEEEELMKMLEIDGNDPNLGNLDKELTDGCKQQ
Consider B2, for which the binding entry is listed as “binds”.
